These are yes or no findings as the source states them, for the method shown. In cells and extracts the contact can be indirect. Some binding calls cover weakened binding; strength is not graded here.
What was measured:
[1] = molecular target: fibroblast growth factor receptor 2 (human (endogenous in HUVECs)) (UniProt P21802); assay: co-IP; endogenous proteins in HUVEC lysate (IP lysis buffer with protease inhibitors); 2 ug CD44 rabbit antibody, FGFR2 rabbit antibody or normal rabbit IgG, Protein G Sepharose, 4 °C; Western blot
[2] = molecular target: CD44 (human (endogenous in HUVECs)) (UniProt P16070); assay: proximity ligation; Duolink in situ PLA on fixed, permeabilized HUVECs on fibronectin-coated glass; CD44 rabbit antibody paired with FGFR2, LaminA/C or CD9 mouse antibody; endogenous protein levels, distances < 40 nm
[3] = molecular target: CD44 (human (endogenous in HUVECs)) (UniProt P16070); assay: co-IP; endogenous proteins in HUVEC lysate (IP lysis buffer with protease inhibitors); 2 ug CD44 rabbit antibody, FGFR2 rabbit antibody or normal rabbit IgG, Protein G Sepharose, 4 °C; Western blot

The chains behind the UniProt entries cited, without tags or fusion partners. Residues count along the entry.
UniProt P21802, residues 22-821: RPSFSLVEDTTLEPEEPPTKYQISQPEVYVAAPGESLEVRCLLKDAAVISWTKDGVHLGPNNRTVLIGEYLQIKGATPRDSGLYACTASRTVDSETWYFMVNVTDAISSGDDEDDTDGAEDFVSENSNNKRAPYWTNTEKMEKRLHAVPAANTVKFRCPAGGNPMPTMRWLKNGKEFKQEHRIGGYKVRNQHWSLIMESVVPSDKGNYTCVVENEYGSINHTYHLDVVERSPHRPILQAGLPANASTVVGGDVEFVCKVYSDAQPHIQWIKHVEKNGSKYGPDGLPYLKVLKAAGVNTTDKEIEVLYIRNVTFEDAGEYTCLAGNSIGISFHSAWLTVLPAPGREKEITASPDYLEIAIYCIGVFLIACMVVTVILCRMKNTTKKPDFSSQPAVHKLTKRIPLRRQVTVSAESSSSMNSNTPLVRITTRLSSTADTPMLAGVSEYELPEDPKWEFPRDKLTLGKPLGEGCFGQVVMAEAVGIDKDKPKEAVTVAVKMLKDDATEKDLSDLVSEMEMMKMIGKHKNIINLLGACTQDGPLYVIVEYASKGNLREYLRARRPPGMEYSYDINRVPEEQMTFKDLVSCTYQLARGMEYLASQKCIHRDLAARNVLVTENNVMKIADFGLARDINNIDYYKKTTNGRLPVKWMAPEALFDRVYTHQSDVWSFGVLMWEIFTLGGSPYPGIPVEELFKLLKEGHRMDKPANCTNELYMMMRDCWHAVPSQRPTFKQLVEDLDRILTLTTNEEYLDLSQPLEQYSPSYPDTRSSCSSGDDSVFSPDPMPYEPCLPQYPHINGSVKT
UniProt P16070, residues 21-742: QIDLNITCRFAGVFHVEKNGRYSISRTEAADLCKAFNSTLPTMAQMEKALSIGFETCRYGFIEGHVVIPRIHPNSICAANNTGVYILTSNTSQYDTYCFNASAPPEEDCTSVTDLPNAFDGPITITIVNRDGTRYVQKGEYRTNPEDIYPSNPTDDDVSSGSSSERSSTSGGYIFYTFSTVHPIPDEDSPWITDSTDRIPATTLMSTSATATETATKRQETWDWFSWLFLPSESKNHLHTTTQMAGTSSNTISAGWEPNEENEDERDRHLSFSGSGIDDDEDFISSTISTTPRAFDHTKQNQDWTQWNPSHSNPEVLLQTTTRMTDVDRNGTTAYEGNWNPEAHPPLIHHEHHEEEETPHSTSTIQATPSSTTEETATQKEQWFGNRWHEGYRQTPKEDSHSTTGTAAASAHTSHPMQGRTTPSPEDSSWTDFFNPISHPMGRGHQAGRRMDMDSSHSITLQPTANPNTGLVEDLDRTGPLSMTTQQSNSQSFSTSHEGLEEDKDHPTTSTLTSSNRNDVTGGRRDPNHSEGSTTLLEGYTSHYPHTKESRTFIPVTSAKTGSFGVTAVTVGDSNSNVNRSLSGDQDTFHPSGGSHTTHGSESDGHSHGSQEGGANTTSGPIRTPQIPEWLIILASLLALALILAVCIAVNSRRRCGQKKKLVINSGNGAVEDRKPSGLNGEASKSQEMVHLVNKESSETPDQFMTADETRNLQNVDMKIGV
UniProt P21926: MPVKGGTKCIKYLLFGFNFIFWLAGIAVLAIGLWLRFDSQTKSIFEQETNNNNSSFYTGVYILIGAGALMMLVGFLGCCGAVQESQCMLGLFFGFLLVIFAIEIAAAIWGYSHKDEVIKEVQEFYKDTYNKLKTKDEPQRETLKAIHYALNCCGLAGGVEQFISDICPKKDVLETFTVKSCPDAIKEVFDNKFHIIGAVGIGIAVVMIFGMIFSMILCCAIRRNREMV

| binding [1] | binding [2] | binding [3] | Substance |
| --- | --- | --- | --- |
| binds |  |  | CD44 (from UniProt P16070 21-742) |
|  | binds |  | CD9 (from UniProt P21926 1-228) |
|  | binds | binds | fibroblast growth factor receptor 2 (from UniProt P21802 22-821) |

From publication PMC9719212
